Experimental data taken from US11230581B2, “Peptides and combination of peptides for use in immunotherapy against ovarian cancer and other cancers” (Immatics Biotechnologies GmbH, priority 2015, dated 2022).

Legend:
[1] = system: ovarian cancer samples; assay: Relative LC-MS quantitation of HLA-presented peptides: presentation and over-presentation on ovarian cancer vs a panel of normal tissues (presentation score); set-up: species or system human; key: +++: very highly over-presented on tumors compared to a panel of normal tissues; ++: highly over-presented on tumors compared to a panel of normal tissues; +: over-presented on tumors compared to a panel of normal tissues; conditions: over-presentation on tumors compared to a panel of normal tissues
[2] = system: additional tumor types; assay: LC-MS detection and over-presentation of the peptides on additional tumor types, cell lines and primary cultures; set-up: species or system human; conditions: for Other relevant organs/ cancerous diseases: Table 4A: additional tumor types on which the peptide was found, over-presented on more than 5% of measured tumor samples, or presented on more than 5% with ratio of geometric means tumor vs normal tissues larger than 3; for Additional organs/cancerous diseases: additional tumor types with over-presentation on more than 5% of the measured tumor samples, or presentation on more than 5% with ratio of geometric means tumor vs normal tissues larger than 3

277 (LLPPLESLATV; listed as Homo sapiens) [compound 277]
Peptide Presentation (presentation score) [1]: + | Other relevant organs/ cancerous diseases [2]: SCLC, Leukemia, Melanoma | Additional organs/cancerous diseases [2]: CLL, BRCA, Urinary Bladder Cancer, HNSCC

218 (SALEELVNV; listed as Homo sapiens) [compound 218]
Peptide Presentation (presentation score) [1]: +++ | Other relevant organs/ cancerous diseases [2]: RCC

507 (KLIDDQDISISL; listed as Homo sapiens) [compound 507]
Peptide Presentation (presentation score) [1]: + | Other relevant organs/ cancerous diseases [2]: Leukemia | Additional organs/cancerous diseases [2]: CLL, Urinary Bladder Cancer, NHL

279 (ALWGGTQPLL; listed as Homo sapiens) [compound 279]
Peptide Presentation (presentation score) [1]: ++ | Other relevant organs/ cancerous diseases [2]: SCLC, Brain Cancer, Esophageal Cancer

496 (FLVEKQPPQV; listed as Homo sapiens) [compound 496]
Peptide Presentation (presentation score) [1]: +++ | Other relevant organs/ cancerous diseases [2]: Leukemia, Melanoma | Additional organs/cancerous diseases [2]: CLL, NHL

205 (SLYPGTETMGL; listed as Homo sapiens) [compound 205]
Peptide Presentation (presentation score) [1]: +++ | Other relevant organs/ cancerous diseases [2]: SCLC, Gallbladder, Bile duct | Additional organs/cancerous diseases [2]: AML

601 (SAFPFPVTV; listed as Homo sapiens) [compound 601]
Peptide Presentation (presentation score) [1]: + | Other relevant organs/ cancerous diseases [2]: Stomach, Leukemia, Esophageal Cancer | Additional organs/cancerous diseases [2]: CLL, Gallbladder Cancer and Bile Duct Cancer, AML

239 (AAFAGKLLSV; listed as Homo sapiens) [compound 239]
Peptide Presentation (presentation score) [1]: +++

37 (LLWDVVTGQSV; listed as Homo sapiens) [compound 37]
Peptide Presentation (presentation score) [1]: +++

136 (YLADPSNLFVV; listed as Homo sapiens) [compound 136]
Peptide Presentation (presentation score) [1]: +++

202 (ALLDQQGSRWTL; listed as Homo sapiens) [compound 202]
Peptide Presentation (presentation score) [1]: +++

113 (GLLPTPLFGV; listed as Homo sapiens) [compound 113]
Peptide Presentation (presentation score) [1]: +++

90 (TLLQIIETV; listed as Homo sapiens) [compound 90]
Peptide Presentation (presentation score) [1]: +++

109 (IILSILEQA; listed as Homo sapiens) [compound 109]
Peptide Presentation (presentation score) [1]: +++

462 (KLAKQPETV; listed as Homo sapiens) [compound 462]
Peptide Presentation (presentation score) [1]: +++

215 (QLINHLHAV; listed as Homo sapiens) [compound 215]
Peptide Presentation (presentation score) [1]: +++

35 (KINDTIYEV; listed as Homo sapiens) [compound 35]
Peptide Presentation (presentation score) [1]: +++

165 (SLLDEIRAV; listed as Homo sapiens) [compound 165]
Peptide Presentation (presentation score) [1]: +++

130 (FLWNGEDSALL; listed as Homo sapiens) [compound 130]
Peptide Presentation (presentation score) [1]: +++

220 (LLQKFVPEI; listed as Homo sapiens) [compound 220]
Peptide Presentation (presentation score) [1]: +++

70 (GLLDYPVGV; listed as Homo sapiens) [compound 70]
Peptide Presentation (presentation score) [1]: +++

122 (FLLAEDDIYL; listed as Homo sapiens) [compound 122]
Peptide Presentation (presentation score) [1]: +++

41 (SLMPHIPGL; listed as Homo sapiens) [compound 41]
Peptide Presentation (presentation score) [1]: +++

196 (YLYSVEIKL; listed as Homo sapiens) [compound 196]
Peptide Presentation (presentation score) [1]: +++

254 (TLLAFIMEL; listed as Homo sapiens) [compound 254]
Peptide Presentation (presentation score) [1]: +++

112 (FLITSNNQL; listed as Homo sapiens) [compound 112]
Peptide Presentation (presentation score) [1]: +++

162 (YQQAQVPSV; listed as Homo sapiens) [compound 162]
Peptide Presentation (presentation score) [1]: +++

114 (SLVGEPILQNV; listed as Homo sapiens) [compound 114]
Peptide Presentation (presentation score) [1]: +++

4 (GIMEHITKI; listed as Homo sapiens) [compound 4]
Peptide Presentation (presentation score) [1]: +++

232 (ALLEAQDVELYL; listed as Homo sapiens) [compound 232]
Peptide Presentation (presentation score) [1]: +++

96 (YIFTDNPAAV; listed as Homo sapiens) [compound 96]
Peptide Presentation (presentation score) [1]: +++

50 (SLSELEALM; listed as Homo sapiens) [compound 50]
Peptide Presentation (presentation score) [1]: +++

231 (FLSPQQPPLLL; listed as Homo sapiens) [compound 231]
Peptide Presentation (presentation score) [1]: +++

39 (SVAPNLPAV; listed as Homo sapiens) [compound 39]
Peptide Presentation (presentation score) [1]: +++

158 (KLFDVDEDGYI; listed as Homo sapiens) [compound 158]
Peptide Presentation (presentation score) [1]: +++

46 (ILTEENIHL; listed as Homo sapiens) [compound 46]
Peptide Presentation (presentation score) [1]: +++

53 (KMIETDILQKV; listed as Homo sapiens) [compound 53]
Peptide Presentation (presentation score) [1]: +++

223 (ALLENIALYL; listed as Homo sapiens) [compound 223]
Peptide Presentation (presentation score) [1]: +++

225 (SLLKVLPAL; listed as Homo sapiens) [compound 225]
Peptide Presentation (presentation score) [1]: +++

203 (VLLEDAHSHTL; listed as Homo sapiens) [compound 203]
Peptide Presentation (presentation score) [1]: +++

52 (FLLAHGLGFLL; listed as Homo sapiens) [compound 52]
Peptide Presentation (presentation score) [1]: +++

245 (SMIDDLLGV; listed as Homo sapiens) [compound 245]
Peptide Presentation (presentation score) [1]: +++

44 (ILDPISSGFLL; listed as Homo sapiens) [compound 44]
Peptide Presentation (presentation score) [1]: +++

12 (SLWPDPMEV; listed as Homo sapiens) [compound 12]
Peptide Presentation (presentation score) [1]: +++

219 (KLSDIGITV; listed as Homo sapiens) [compound 219]
Peptide Presentation (presentation score) [1]: +++

25 (FLPDEPYIKV; listed as Homo sapiens) [compound 25]
Peptide Presentation (presentation score) [1]: +++

189 (ALQRKLPYV; listed as Homo sapiens) [compound 189]
Peptide Presentation (presentation score) [1]: +++

89 (YILPTETIYV; listed as Homo sapiens) [compound 89]
Peptide Presentation (presentation score) [1]: +++

442 (GLLGGGGVLGV; listed as Homo sapiens) [compound 442]
Peptide Presentation (presentation score) [1]: +++

99 (ALVSKGLATV; listed as Homo sapiens) [compound 99]
Peptide Presentation (presentation score) [1]: +++

368 (ILLEEVSPEL; listed as Homo sapiens) [compound 368]
Peptide Presentation (presentation score) [1]: +

181 (LLWAGTAFQV; listed as Homo sapiens) [compound 181]
Peptide Presentation (presentation score) [1]: +++
